Assay results published in article PMC7862700.
The entries are a selection whose mix differs from that of the whole data set. For part of these data: At the low end of the ranking the order means little. The list shows a part of the results. For part of these data: The exact form of the protein is not confirmed.

By UniProt entry, the sequences of proteins in these tests, tags left out. Where a name states a change or a piece, a line headed by the entry shows the natural chain unless it says otherwise.
UniProt Q00613: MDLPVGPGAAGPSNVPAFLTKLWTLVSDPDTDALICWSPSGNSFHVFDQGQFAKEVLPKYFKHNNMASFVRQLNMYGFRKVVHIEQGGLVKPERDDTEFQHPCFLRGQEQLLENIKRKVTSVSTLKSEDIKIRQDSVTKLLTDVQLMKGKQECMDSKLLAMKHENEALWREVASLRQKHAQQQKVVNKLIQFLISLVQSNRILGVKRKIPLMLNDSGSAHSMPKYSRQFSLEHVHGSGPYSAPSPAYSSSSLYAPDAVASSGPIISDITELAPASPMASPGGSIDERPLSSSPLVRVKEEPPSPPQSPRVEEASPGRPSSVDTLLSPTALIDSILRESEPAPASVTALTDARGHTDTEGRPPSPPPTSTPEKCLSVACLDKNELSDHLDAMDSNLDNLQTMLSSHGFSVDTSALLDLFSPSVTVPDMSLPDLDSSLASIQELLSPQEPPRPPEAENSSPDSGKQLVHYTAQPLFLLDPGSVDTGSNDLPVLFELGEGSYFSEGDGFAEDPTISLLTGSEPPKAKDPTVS

Assays:
[1] = biological target: HSF1 (UniProt Q00613); assay: DAPPL (digital affinity profiling via proximity ligation, sequencing); details: 10 mM Tris-HCl pH 7.5, 50 mM NaCl, 1 mM DTT, 4% glycerol, room temperature, 30 min; GST-TFs on glutathione beads, 16-mer random dsDNA library, 0.1% …; high values mean tight binding; double strand, one strand shown; scale: fold enrichment (6-mer frequency, TF over GST control)
[2] = biological target: T1, ELF2 (UniProt Q15723); assay: as above; details: 10 mM Tris-HCl pH 7.5, 50 mM NaCl, 1 mM DTT, 4% glycerol, room temperature, 30 min; GST-TFs on glutathione beads, 16-mer random dsDNA library, 0.1% …; high values mean tight binding; double strand, one strand shown; scale: fold enrichment (6-mer frequency, TF over GST control)
T1 sequence: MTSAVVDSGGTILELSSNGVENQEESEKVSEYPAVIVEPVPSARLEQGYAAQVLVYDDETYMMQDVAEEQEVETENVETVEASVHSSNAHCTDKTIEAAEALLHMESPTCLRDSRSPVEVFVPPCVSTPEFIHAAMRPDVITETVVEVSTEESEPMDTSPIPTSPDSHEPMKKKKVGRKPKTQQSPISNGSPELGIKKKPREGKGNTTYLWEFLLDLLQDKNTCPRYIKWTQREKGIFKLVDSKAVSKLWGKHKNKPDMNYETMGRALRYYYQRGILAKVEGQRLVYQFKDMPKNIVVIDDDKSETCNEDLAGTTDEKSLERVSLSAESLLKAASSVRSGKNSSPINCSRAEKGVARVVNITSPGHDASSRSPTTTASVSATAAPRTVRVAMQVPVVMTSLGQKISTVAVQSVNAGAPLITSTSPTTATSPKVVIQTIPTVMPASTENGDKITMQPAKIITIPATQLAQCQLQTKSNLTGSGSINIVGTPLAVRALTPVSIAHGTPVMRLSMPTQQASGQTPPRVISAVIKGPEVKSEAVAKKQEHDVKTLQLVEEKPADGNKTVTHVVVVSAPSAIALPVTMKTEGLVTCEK

Row | Sequence | binding signal [1] | binding signal [2]
1 | GCGGTC | 0.521 | 0.633
2 | TGGCGG | 0.582 | 0.786
3 | ACGGTC | 0.641 | 0.722
4 | GGGGTT | 0.806 | 0.851
5 | GTGCGA | 0.817 | 0.837
6 | CAGTAC | 0.713 | 0.827
7 | AGAGTT | 0.821 | 0.801
8 | TCCAGG | 0.979 | 0.928
9 | GGGATC | 0.705 | 0.614
10 | GGTCAG | 0.427 | 0.529
11 | ATCGAG | 1.49 | 0.828
12 | ACCGTG | 0.212 | 0.233
13 | AGTTCA | 0.801 | 0.927
14 | CAAGCG | 0.822 | 0.87
15 | CGTGCC | 0.651 | 0.801
16 | GGCCCA | 0.656 | 0.743
17 | GAGTCG | 0.221 | 0.215
18 | TGAGAA | 0.945 | 0.678
19 | CGTGGT | 0.47 | 0.575
20 | CAGTGA | 0.339 | 0.326
21 | TCAGGA | 0.844 | 0.988
22 | GTCGTC | 0.583 | 0.728
23 | AGATCG | 0.561 | 0.464

Row | Sequence | binding signal [1] | binding signal [2]
24 | CGGGCA | 0.625 | 0.731
25 | GCGTGC | 0.648 | 0.713
26 | AGGGGT | 0.72 | 0.81
27 | GGCATG | 0.692 | 0.77
28 | AGAGTC | 0.447 | 0.42
29 | ACCAGA | 1.55 | 0.876
30 | GCGGAG | 0.239 | 0.249
31 | GTCAGA | 0.606 | 0.636
32 | GACTAA | 1.13 | 0.866
33 | CACCGT | 0.599 | 0.618
34 | GGGAGA | 0.359 | 0.324
35 | GACAGC | 0.625 | 0.706
36 | GTAGGA | 0.519 | 0.669
37 | GCGCGG | 0.684 | 0.856
38 | GGAACG | 0.684 | 0.593
39 | ACCATG | 0.741 | 0.791
40 | TCGTAA | 1.12 | 0.882
41 | GTGAGC | 0.307 | 0.378
42 | GGCAAG | 0.589 | 0.677
43 | GCAGAC | 0.559 | 0.71
44 | AGACAT | 0.748 | 0.804
45 | GCTGGA | 1.19 | 0.779
46 | GGTCCG | 0.584 | 0.764

Row | Sequence | binding signal [1] | binding signal [2]
47 | CGCGGA | 0.701 | 1.23
48 | TGAGTC | 0.204 | 0.191
49 | GAGCCT | 0.804 | 0.744
50 | GAGTCC | 0.353 | 0.366
51 | GCGGAC | 0.457 | 0.769
52 | AGCCGA | 0.91 | 0.751
53 | GATCGT | 0.455 | 0.396
54 | TGTAGT | 0.744 | 0.887
55 | GCGGGC | 0.535 | 0.699
56 | GTGGAC | 0.671 | 0.888
57 | GGTCGC | 0.606 | 0.792
58 | GGTGTG | 0.547 | 0.661
59 | CCCGAG | 0.954 | 0.771
60 | AAAGTG | 0.896 | 0.856
61 | ACGCAA | 0.802 | 0.859
62 | CAGTCC | 0.54 | 0.617
63 | GGACGC | 0.299 | 0.401
64 | AAGAGG | 0.801 | 0.854
65 | AGGGTG | 0.629 | 0.711
66 | CGGTAC | 0.642 | 0.967
67 | ACTAGT | 0.965 | 0.865
68 | AGCGTT | 0.903 | 0.927
69 | CGTGGC | 0.727 | 0.864

Row | Sequence | binding signal [1] | binding signal [2]
70 | CCAGCG | 0.631 | 0.598
71 | GGATAG | 0.702 | 0.731
72 | GCGCAA | 0.788 | 0.834
73 | GAGCCG | 0.366 | 0.405
74 | ACGAGA | 1.14 | 0.64
75 | AGTGGG | 0.461 | 0.606
76 | CAGTCA | 0.431 | 0.483
77 | AGACGC | 0.637 | 0.683
78 | TGGGGC | 0.646 | 0.739
79 | GAGTGA | 0.374 | 0.377
80 | TCGGGG | 0.39 | 0.377
81 | CCGGGC | 0.564 | 0.882
82 | CAGGTT | 0.64 | 0.67
83 | CGGACA | 0.503 | 0.885
84 | GCTCGG | 0.668 | 0.706
85 | GGAGGA | 0.231 | 0.26
86 | CAGGGA | 0.505 | 0.503
87 | CGGTGG | 0.517 | 0.639
88 | CGCATT | 0.792 | 0.837
89 | TCAGTG | 0.746 | 0.718
90 | GAGGCG | 0.328 | 0.401
91 | GGGGAA | 0.657 | 0.718
92 | GGCTGT | 0.676 | 0.779

Row | Sequence | binding signal [1] | binding signal [2]
93 | GAACAG | 0.964 | 1.01
94 | GTGGAG | 0.393 | 0.411
95 | GTCAAC | 0.658 | 0.874
96 | GATCGC | 0.835 | 0.869
97 | GGGGCG | 0.46 | 0.575
98 | AAGCCA | 0.935 | 0.853
99 | GTAGGG | 0.594 | 0.739
100 | TGAGGA | 0.591 | 0.71
101 | GATGTG | 0.62 | 0.947
102 | CCGTGA | 0.187 | 0.193
103 | CGGGCG | 0.335 | 0.433
104 | CGTGTT | 0.711 | 0.835
105 | GGGTGG | 0.651 | 0.727
106 | CGGTAG | 0.518 | 0.829
107 | AGTAGA | 0.798 | 0.816
108 | CACAGG | 0.683 | 0.876
109 | CAAGAG | 0.759 | 0.7
110 | CAGGCG | 0.237 | 0.278
111 | AGCGGG | 0.421 | 0.483
112 | TAGTCG | 0.523 | 0.419
113 | TTGTGA | 0.741 | 0.737
114 | CGGGAA | 0.999 | 0.856

Rewritten with tabs: entries from further up.
Row	Sequence	binding signal [1]	binding signal [2]
93	GAACAG	0.964	1.01
94	GTGGAG	0.393	0.411
95	GTCAAC	0.658	0.874
96	GATCGC	0.835	0.869
